Measured values published in the supplement of paper PMC12823440, “Inhibitors supercharge kinase turnover through native proteolytic circuits” (Nature, 2025).
Where a name gives a salt, the structure may show the parent alone. Some of the results follow. The calls rarely recur for the same compound in another form.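 In K562 cells expressing nanoluciferase-fused kinases, luminescence was recorded at 4 h intervals between 2 and 18 h, normalized as percent of control with DMSO at 100% and a positive control at 0%. A significant (2 sigma) signal drop marks a time point as decreased. The authors' rule for a hit is not shown and takes in more than the number of time points.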

Chains of the proteins cited; added tags and fusions are not shown. Lines headed by an entry give the natural chain unless they say otherwise; changes in a name come on top.
UniProt P07949, whole entry, looked up: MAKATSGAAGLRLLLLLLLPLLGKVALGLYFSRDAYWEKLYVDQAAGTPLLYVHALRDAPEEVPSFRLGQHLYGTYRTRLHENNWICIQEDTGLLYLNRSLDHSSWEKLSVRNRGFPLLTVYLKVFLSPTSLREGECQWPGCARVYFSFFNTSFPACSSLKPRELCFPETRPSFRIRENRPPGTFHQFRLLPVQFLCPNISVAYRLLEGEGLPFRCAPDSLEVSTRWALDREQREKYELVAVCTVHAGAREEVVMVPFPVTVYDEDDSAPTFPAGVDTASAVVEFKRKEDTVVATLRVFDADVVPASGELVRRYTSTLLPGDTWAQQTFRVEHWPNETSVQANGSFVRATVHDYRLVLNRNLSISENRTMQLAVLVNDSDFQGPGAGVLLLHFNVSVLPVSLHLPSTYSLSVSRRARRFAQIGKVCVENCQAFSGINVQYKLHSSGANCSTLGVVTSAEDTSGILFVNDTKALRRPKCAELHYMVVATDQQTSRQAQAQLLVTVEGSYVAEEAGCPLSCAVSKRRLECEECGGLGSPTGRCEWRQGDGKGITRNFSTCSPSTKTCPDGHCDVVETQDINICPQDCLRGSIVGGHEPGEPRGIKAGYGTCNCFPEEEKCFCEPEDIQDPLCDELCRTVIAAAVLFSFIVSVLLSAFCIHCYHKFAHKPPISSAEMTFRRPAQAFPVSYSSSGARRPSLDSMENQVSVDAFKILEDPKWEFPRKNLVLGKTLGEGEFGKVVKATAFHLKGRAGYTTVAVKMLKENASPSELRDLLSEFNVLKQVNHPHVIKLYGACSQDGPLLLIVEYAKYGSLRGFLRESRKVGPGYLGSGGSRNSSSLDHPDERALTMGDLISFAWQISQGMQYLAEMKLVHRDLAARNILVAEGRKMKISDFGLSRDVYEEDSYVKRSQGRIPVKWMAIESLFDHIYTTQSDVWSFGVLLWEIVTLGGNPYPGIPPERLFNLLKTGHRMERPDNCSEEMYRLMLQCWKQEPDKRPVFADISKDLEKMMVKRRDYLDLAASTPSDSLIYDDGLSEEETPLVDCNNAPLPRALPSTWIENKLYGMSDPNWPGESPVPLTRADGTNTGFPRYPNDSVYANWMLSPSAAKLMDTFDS
UniProt P07949, whole entry M918T, looked up: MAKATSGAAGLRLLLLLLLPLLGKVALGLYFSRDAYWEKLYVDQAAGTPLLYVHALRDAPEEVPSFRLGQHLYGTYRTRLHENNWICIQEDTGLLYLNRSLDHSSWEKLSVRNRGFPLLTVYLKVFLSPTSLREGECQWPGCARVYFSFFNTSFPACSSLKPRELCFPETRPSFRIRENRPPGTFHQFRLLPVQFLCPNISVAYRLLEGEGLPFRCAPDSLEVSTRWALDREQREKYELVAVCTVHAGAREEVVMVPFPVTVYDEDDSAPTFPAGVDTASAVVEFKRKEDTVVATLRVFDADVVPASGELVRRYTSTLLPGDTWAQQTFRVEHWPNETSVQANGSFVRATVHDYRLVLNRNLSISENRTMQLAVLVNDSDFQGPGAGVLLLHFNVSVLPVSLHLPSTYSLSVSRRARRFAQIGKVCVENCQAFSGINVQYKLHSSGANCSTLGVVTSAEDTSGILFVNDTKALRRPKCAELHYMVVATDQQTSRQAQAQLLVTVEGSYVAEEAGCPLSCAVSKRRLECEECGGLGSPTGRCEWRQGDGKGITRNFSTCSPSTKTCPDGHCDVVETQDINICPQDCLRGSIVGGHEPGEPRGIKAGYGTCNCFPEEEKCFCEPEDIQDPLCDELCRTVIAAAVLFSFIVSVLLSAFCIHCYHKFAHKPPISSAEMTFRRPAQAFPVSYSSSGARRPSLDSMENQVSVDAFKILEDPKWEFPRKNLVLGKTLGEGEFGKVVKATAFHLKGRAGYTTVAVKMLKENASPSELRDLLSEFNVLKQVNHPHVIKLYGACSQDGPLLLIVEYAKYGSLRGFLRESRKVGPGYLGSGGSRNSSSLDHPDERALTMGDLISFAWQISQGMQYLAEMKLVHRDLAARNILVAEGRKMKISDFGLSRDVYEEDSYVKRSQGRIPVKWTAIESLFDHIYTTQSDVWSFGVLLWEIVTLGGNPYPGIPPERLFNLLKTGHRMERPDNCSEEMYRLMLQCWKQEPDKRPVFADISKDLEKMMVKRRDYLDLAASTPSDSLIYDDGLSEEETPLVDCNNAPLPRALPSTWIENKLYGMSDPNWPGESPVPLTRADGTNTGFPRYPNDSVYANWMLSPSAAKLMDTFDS
UniProt Q9BRS2: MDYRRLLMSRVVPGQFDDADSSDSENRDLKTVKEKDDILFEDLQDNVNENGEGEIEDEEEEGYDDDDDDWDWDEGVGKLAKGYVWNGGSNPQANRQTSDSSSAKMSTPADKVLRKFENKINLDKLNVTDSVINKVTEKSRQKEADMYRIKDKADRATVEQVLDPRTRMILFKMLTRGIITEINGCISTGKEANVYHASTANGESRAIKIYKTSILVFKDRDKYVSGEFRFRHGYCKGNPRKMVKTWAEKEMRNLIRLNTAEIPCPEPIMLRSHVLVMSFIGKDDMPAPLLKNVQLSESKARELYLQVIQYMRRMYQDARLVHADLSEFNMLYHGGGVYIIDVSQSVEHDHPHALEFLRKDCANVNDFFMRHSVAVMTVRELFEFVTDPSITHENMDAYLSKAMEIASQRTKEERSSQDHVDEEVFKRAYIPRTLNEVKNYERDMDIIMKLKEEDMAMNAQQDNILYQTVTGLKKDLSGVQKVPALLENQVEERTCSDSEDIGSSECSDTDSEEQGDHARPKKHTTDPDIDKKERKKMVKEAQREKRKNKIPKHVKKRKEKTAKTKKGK
UniProt Q13546: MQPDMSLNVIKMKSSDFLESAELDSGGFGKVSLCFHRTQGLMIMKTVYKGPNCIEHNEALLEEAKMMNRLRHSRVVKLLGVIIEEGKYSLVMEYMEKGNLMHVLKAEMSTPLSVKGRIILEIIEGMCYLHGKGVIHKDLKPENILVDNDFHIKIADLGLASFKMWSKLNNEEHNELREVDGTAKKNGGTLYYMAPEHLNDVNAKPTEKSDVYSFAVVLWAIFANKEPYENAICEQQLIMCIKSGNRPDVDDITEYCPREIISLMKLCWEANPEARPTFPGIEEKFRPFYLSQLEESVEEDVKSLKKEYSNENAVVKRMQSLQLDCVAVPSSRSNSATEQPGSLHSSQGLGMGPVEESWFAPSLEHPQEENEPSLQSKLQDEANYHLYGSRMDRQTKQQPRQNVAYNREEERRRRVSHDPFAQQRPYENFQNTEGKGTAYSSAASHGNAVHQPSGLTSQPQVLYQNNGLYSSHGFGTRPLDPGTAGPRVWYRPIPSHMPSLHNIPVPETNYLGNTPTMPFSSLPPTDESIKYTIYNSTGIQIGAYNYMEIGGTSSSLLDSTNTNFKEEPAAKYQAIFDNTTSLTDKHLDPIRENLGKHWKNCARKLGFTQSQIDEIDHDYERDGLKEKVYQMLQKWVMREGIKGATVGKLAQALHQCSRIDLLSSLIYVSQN
UniProt Q01974, whole entry: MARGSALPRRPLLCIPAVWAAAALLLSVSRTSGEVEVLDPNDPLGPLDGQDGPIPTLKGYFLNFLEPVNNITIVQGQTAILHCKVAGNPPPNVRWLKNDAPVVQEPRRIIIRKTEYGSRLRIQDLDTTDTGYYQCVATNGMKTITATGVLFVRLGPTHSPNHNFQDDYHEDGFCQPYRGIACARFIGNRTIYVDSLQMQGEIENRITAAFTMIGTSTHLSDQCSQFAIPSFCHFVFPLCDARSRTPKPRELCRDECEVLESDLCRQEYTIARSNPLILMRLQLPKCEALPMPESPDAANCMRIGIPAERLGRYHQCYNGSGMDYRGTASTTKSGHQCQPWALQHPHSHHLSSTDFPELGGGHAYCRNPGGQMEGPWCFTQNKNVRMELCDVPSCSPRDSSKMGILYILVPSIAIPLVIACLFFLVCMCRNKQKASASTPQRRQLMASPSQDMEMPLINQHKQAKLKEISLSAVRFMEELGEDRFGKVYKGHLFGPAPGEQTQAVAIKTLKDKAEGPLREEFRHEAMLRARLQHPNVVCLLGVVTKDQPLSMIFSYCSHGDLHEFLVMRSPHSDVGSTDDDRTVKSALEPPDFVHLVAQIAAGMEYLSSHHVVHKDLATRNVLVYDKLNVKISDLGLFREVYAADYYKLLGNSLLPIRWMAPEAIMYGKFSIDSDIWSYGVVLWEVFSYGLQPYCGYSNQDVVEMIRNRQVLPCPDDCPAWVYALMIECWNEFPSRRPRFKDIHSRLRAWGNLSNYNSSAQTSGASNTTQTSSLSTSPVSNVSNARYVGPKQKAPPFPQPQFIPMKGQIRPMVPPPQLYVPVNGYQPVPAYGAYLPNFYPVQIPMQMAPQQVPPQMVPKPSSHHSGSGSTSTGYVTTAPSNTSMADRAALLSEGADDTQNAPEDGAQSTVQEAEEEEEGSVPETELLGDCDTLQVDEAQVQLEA
UniProt Q15418, whole entry: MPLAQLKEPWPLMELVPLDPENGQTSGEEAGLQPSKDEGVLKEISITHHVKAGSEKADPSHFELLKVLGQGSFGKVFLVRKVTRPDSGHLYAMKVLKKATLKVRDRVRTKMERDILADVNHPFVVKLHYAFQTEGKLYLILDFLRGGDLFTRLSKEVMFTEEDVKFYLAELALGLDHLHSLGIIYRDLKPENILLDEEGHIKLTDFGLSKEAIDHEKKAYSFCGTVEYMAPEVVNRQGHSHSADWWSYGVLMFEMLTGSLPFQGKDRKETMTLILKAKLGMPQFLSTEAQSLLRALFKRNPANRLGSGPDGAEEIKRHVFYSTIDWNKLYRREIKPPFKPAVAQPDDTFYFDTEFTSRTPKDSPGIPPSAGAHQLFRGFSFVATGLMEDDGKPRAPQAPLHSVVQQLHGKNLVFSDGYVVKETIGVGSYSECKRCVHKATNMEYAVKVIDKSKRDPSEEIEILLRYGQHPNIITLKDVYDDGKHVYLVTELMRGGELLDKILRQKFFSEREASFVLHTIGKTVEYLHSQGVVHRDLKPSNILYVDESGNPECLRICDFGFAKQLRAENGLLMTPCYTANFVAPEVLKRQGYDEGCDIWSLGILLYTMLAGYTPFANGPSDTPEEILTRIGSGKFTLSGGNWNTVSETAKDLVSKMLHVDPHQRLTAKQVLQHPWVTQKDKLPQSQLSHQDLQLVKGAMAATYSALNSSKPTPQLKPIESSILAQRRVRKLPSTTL
UniProt Q9NYA1, whole entry: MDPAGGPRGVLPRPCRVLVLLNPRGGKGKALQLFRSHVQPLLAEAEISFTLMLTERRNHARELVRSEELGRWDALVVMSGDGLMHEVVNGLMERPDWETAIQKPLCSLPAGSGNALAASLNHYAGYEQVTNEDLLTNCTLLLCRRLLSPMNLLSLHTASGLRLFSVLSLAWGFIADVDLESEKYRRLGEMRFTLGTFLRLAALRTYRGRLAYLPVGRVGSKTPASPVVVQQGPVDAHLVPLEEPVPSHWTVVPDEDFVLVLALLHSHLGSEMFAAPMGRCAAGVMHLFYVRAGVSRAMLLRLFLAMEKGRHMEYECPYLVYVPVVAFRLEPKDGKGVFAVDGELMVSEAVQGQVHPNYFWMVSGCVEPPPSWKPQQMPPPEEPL
UniProt Q9Y6E0: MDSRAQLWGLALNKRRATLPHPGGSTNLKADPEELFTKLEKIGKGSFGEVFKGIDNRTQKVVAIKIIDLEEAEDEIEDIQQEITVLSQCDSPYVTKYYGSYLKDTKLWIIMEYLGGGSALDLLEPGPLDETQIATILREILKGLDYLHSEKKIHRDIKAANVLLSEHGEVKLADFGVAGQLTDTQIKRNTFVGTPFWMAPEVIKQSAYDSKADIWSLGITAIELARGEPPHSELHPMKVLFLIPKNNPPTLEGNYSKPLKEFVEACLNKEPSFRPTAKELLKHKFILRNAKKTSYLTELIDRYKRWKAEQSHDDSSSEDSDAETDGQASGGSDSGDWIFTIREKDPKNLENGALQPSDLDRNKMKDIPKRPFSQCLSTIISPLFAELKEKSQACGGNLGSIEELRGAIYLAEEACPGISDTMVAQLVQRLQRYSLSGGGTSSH

Assays:
Test in all cases: kinase-Nluc reporter destabilization hit call (1 = scored as downregulated) (binary); higher = compound decreases kinase abundance
Details in all cases: K562; 2-18 h
RET = RET (UniProt P07949)
[1] = target: RET_M918T (clone: RET_mut) (UniProt P07949)
RIOK1 = RIOK1 (UniProt Q9BRS2)
RIPK1 = RIPK1 (UniProt Q13546)
RIPK2 = RIPK2 (UniProt O43353)
ROR2 = ROR2 (UniProt Q01974)
RPS6KA1 = RPS6KA1 (UniProt Q15418)
SPHK1 = SPHK1 (UniProt Q9NYA1)
SRC = SRC (UniProt P12931)
STK24 = STK24 (UniProt Q9Y6E0)

Measured: kinase-Nluc reporter destabilization hit call

C=CC(=O)N1C(=O)CC(c2ccc(F)cc2)Sc2ccccc21 (stereo not drawn) [GSK-3β inhibitor 3] (10 µM)
inactive: RET 0 | [1] 0 | RIOK1 = 0 | RIPK1 = 0 | RIPK2 = 0 | ROR2 = 0 | RPS6KA1 = 0 | SPHK1 = 0 | SRC 0 | STK24 = 0

Cc1ncc(NC(=O)NC2c3ccccc3-c3ccccc32)c(-c2ccccc2)n1 (10 µM)
inactive: RET 0 | [1] 0 | RIOK1 = 0 | RIPK1 = 0 | RIPK2 = 0 | ROR2 = 0 | RPS6KA1 = 0 | SPHK1 = 0 | SRC 0 | STK24 = 0

CCN(CC)CCC(=O)N1N=C(c2c(-c3ccccc3)c3cc(Br)ccc3[nH]c2=O)CC1c1ccc(Br)cc1 (stereo not given) (2.5 µM)
inactive: RET 0 | [1] 0 | RIOK1 = 0 | RIPK1 = 0 | RIPK2 = 0 | ROR2 = 0 | RPS6KA1 = 0 | SPHK1 = 0 | SRC 0 | STK24 = 0

CCc1cncnc1N1CCN(Cc2nc3ccc(C(F)(F)F)cc3[nH]2)CC1 (10 µM)
inactive: RET 0 | [1] 0 | RIOK1 = 0 | RIPK1 = 0 | RIPK2 = 0 | ROR2 = 0 | RPS6KA1 = 0 | SPHK1 = 0 | SRC 0 | STK24 = 0

Cn1cc(C2=C(c3cccc(N)c3)C(=O)NC2=O)c2ccccc21 (10 µM)
inactive: RET 0 | [1] 0 | RIOK1 = 0 | RIPK1 = 0 | RIPK2 = 0 | ROR2 = 0 | RPS6KA1 = 0 | SPHK1 = 0 | SRC 0 | STK24 = 0

Cc1cc(Nc2nc(CC3(C(=O)O)CCN(C(=O)c4cccc(Cl)c4Cl)CC3)ccc2F)n[nH]1 (10 µM)
inactive: RET 0 | [1] 0 | RIOK1 = 0 | RIPK1 = 0 | RIPK2 = 0 | ROR2 = 0 | RPS6KA1 = 0 | SPHK1 = 0 | SRC 0 | STK24 = 0

C=CCc1ccc(O)c(-c2ccc(O)c(CC=C)c2)c1 [Honokiol] (10 µM)
inactive: RET 0 | [1] 0 | RIOK1 = 0 | RIPK1 = 0 | RIPK2 = 0 | ROR2 = 0 | RPS6KA1 = 0 | SPHK1 = 0 | SRC 0 | STK24 = 0

C=C[C@@](C)(/C=C/c1ccc(O)cc1)CCC=C(C)C [Bakuchiol] (10 µM)
inactive: RET 0 | [1] 0 | RIOK1 = 0 | RIPK1 = 0 | RIPK2 = 0 | ROR2 = 0 | RPS6KA1 = 0 | SPHK1 = 0 | SRC 0 | STK24 = 0

CC(C)(C[C@H](N)C(=O)O)C(F)F [NV-5138 (hydrochloride)] (10 µM)
inactive: RET 0 | [1] 0 | RIOK1 = 0 | RIPK1 = 0 | RIPK2 = 0 | ROR2 = 0 | RPS6KA1 = 0 | SPHK1 = 0 | SRC 0 | STK24 = 0

CC(C)=CC(=O)O[C@H]1Cc2cc3ccc(=O)oc3cc2OC1(C)C [Decursin] (10 µM)
inactive: RET 0 | [1] 0 | RIOK1 = 0 | RIPK1 = 0 | RIPK2 = 0 | ROR2 = 0 | RPS6KA1 = 0 | SPHK1 = 0 | SRC 0 | STK24 = 0

CCc1cccc(CC)c1NC(=O)N1Cc2[nH]nc(NC(=O)c3ccc(N4CCN(C)CC4)cc3)c2C1 (2.5 µM)
inactive: RET 0 | [1] 0 | RIOK1 = 0 | RIPK1 = 0 | RIPK2 = 0 | ROR2 = 0 | RPS6KA1 = 0 | SPHK1 = 0 | SRC 0 | STK24 = 0

CC[C@@](C)(Nc1ccnc(-c2c[nH]c3ncccc23)n1)C(=O)NCC(F)(F)F [Decernotinib] (10 µM)
inactive: RET 0 | [1] 0 | RIOK1 = 0 | RIPK1 = 0 | RIPK2 = 0 | ROR2 = 0 | RPS6KA1 = 0 | SPHK1 = 0 | SRC 0 | STK24 = 0

Cc1cnc(-c2ccc(-c3ccc(NC(=O)Nc4cccc(C(F)(F)F)c4)cc3F)c3c2C(=O)NC3)[nH]1 (10 µM)
inactive: RET 0 | [1] 0 | RIOK1 = 0 | RIPK1 = 0 | RIPK2 = 0 | ROR2 = 0 | RPS6KA1 = 0 | SPHK1 = 0 | SRC 0 | STK24 = 0

Cc1ccn2c(C(=O)C(=O)c3ccccc3)c(-c3ccccc3)nc2c1 (10 µM)
inactive: RET 0 | [1] 0 | RIOK1 = 0 | RIPK1 = 0 | RIPK2 = 0 | ROR2 = 0 | RPS6KA1 = 0 | SPHK1 = 0 | SRC 0 | STK24 = 0

C=CC(=O)N1C[C@H](COc2nc(Nc3cnn(C)c3)nc3[nH]cc(Cl)c23)[C@@H](OC)C1 (2.5 µM)
inactive: RET 0 | [1] 0 | RIOK1 = 0 | RIPK1 = 0 | RIPK2 = 0 | ROR2 = 0 | RPS6KA1 = 0 | SPHK1 = 0 | SRC 0 | STK24 = 0

N#CC(c1ccnc(OCc2ccc(CN3CCOCC3)cc2)n1)c1nc2ccccc2s1 (stereo not given) [Bentamapimod] (2.5 µM)
inactive: RET 0 | [1] 0 | RIOK1 = 0 | RIPK1 = 0 | RIPK2 = 0 | ROR2 = 0 | RPS6KA1 = 0 | SPHK1 = 0 | SRC 0 | STK24 = 0

Quoted at random: two compounds from above, in no set order.
Cc1ncc(NC(=O)NC2c3ccccc3-c3ccccc32)c(-c2ccccc2)n1 (10 µM)
inactive: RET 0 | [1] 0 | RIOK1 = 0 | RIPK1 = 0 | RIPK2 = 0 | ROR2 = 0 | RPS6KA1 = 0 | SPHK1 = 0 | SRC 0 | STK24 = 0

Cn1cc(C2=C(c3cccc(N)c3)C(=O)NC2=O)c2ccccc21 (10 µM)
inactive: RET 0 | [1] 0 | RIOK1 = 0 | RIPK1 = 0 | RIPK2 = 0 | ROR2 = 0 | RPS6KA1 = 0 | SPHK1 = 0 | SRC 0 | STK24 = 0

Following part.

COc1cc(-c2cn[nH]c2)ccc1C(=O)Nc1ccc2c(c1)CCNCC2 (10 µM)
inactive: RET 0 | [1] 0 | RIOK1 = 0 | RIPK1 = 0 | RIPK2 = 0 | ROR2 = 0 | RPS6KA1 = 0 | SPHK1 = 0 | SRC 0 | STK24 = 0

CC/C(=N\NC(=O)c1ccnc(NCCCN2CCOCC2)c1)c1ccc(Cl)cc1O (2.5 µM)
inactive: RET 0 | [1] 0 | RIOK1 = 0 | RIPK1 = 0 | RIPK2 = 0 | ROR2 = 0 | RPS6KA1 = 0 | SPHK1 = 0 | SRC 0 | STK24 = 0

Oc1ccc(/C=C/c2cc(O)cc(F)c2)cc1 [Resveratrol analog 1] (10 µM)
inactive: RET 0 | [1] 0 | RIOK1 = 0 | RIPK1 = 0 | RIPK2 = 0 | ROR2 = 0 | RPS6KA1 = 0 | SPHK1 = 0 | SRC 0 | STK24 = 0

CCN(CC)c1cc2oc(=O)c(-c3nc4ccccc4o3)cc2cc1C (2.5 µM)
inactive: RET 0 | [1] 0 | RIOK1 = 0 | RIPK1 = 0 | RIPK2 = 0 | ROR2 = 0 | RPS6KA1 = 0 | SPHK1 = 0 | SRC 0 | STK24 = 0

CC(C)CCNC(=O)c1ccc2c(c1)nc(Nc1n[nH]c3ccc(-c4ccccc4OC(F)(F)F)cc13)n2C1CCC(O)CC1 (stereo not drawn) [IRAK inhibitor 4 (trans)] (10 µM)
inactive: RET 0 | [1] 0 | RIOK1 = 0 | RIPK1 = 0 | RIPK2 = 0 | ROR2 = 0 | RPS6KA1 = 0 | SPHK1 = 0 | SRC 0 | STK24 = 0

CC(=O)c1c(C)c2cnc(Nc3ccc(N4CCN(C(=O)CNc5cccc6c5C(=O)N(C5CCC(=O)NC5=O)C6=O)CC4)cn3)nc2n(C2CCCC2)c1=O (stereo not given) (10 µM)
inactive: RET 0 | [1] 0 | RIOK1 = 0 | RIPK1 = 0 | RIPK2 = 0 | ROR2 = 0 | RPS6KA1 = 0 | SPHK1 = 0 | SRC 0 | STK24 = 0

c1ccc(-c2nc(=NCCN3CCOCC3)sn2-c2ccccc2)cc1 [VP3.15 (dihydrobromide)] (10 µM)
inactive: RET 0 | [1] 0 | RIOK1 = 0 | RIPK1 = 0 | RIPK2 = 0 | ROR2 = 0 | RPS6KA1 = 0 | SPHK1 = 0 | SRC 0 | STK24 = 0

CC1(C)Cc2c(sc(NC(=S)NC(=O)c3ccccc3)c2C(=O)O)CO1 (10 µM)
inactive: RET 0 | [1] 0 | RIOK1 = 0 | RIPK1 = 0 | RIPK2 = 0 | ROR2 = 0 | RPS6KA1 = 0 | SPHK1 = 0 | SRC 0 | STK24 = 0

COc1ccc(-c2coc3cc(O)ccc3c2=O)cc1 [Formononetin] (10 µM)
inactive: RET 0 | [1] 0 | RIOK1 = 0 | RIPK1 = 0 | RIPK2 = 0 | ROR2 = 0 | RPS6KA1 = 0 | SPHK1 = 0 | SRC 0 | STK24 = 0

N[C@@H](CCC(=O)O)C(=O)N[C@@H](Cc1c[nH]c2ccccc12)C(=O)O [Oglufanide] (10 µM)
inactive: RET 0 | [1] 0 | RIOK1 = 0 | RIPK1 = 0 | RIPK2 = 0 | ROR2 = 0 | RPS6KA1 = 0 | SPHK1 = 0 | SRC 0 | STK24 = 0

CNc1nc(Nc2cn(C(C)(C)C#N)nc2C)ncc1C(F)(F)F (10 µM)
inactive: RET 0 | [1] 0 | RIOK1 = 0 | RIPK1 = 0 | RIPK2 = 0 | ROR2 = 0 | RPS6KA1 = 0 | SPHK1 = 0 | SRC 0 | STK24 = 0

CC(C)S(=O)(=O)c1ccc2nccc(Nc3ccc4scnc4c3)c2c1 (10 µM)
inactive: RET 0 | [1] 0 | RIOK1 = 0 | RIPK1 = 0 | RIPK2 = 0 | ROR2 = 0 | RPS6KA1 = 0 | SPHK1 = 0 | SRC 0 | STK24 = 0

COc1ccc2cc3[n+](cc2c1OC)CCc1cc(O)c(O)cc1-3 [Demethyleneberberine] (10 µM)
inactive: RET 0 | [1] 0 | RIOK1 = 0 | RIPK1 = 0 | RIPK2 = 0 | ROR2 = 0 | RPS6KA1 = 0 | SPHK1 = 0 | SRC 0 | STK24 = 0
